Measurements: patent EP0652290A1, “Method for regulation of NF-kB” (YISSUM RESEARCH DEVELOPMENT COMPANY OF THE HEBREW …, priority 1993, dated 1995)
For part of these data: At least one peptide structure holds a part that was inferred or is arguable (an end, a ring closure or a residue). For part of these data: At least one structure is not confirmed: it was looked up by name or label, or the drawing left a doubt. Where a SMILES comes first, the peptide text is derived from it. [ ]: non-standard residue; d: D form. Nle = CCCC[C@H](N)C(=O)O

Key:
IκBα [1] = experiment: IκB degradation by Western blot in HeLa S3 or Hep G2 cells after TNFα, IL-1 or PMA; format: cell-based, Human; settings: HeLa S3 or Hep G2, 4 hours pretreatment, 20 minutes
Protocol: Human HeLa S3 or Hep G2 cells were pretreated for 4 hours with the indicated peptide aldehyde prior to simulation with either TNFα (20ng/ml), IL-1(20 ng/ml) or PMA (100 µg/ml). The cells were harvested 20 minutes after induction and the extent of IκB degradation was examined via Western blot analysis using IκB specific antisera. FIGURE 7 summarizes the ability of related peptide aldehydes to block IκB degradation induced by a variety of agents which activate NF-κB. (+++) indicates greater than 85% inhibition, (++) indicates greater than 60% inhibition and (-) indicates no inhibition of IκB degradation was observed.

[2] = system: NF-κB-dependent promoters; experiment: 2X kB-LUC / RSV-LUC luciferase reporter in Hep G2 cells; format: cell-based, Human; settings: 200 µM for 3 hours, TNFα 20ng/ml, Hep G2, 2X kB-LUC versus RSV-LUC
IκBα [3] = experiment: IκBα level and stability by Western blot in 70Z/3 cells; format: cell-based; settings: 70Z/3 cells pre-treated with 100 µM, 1 hour
IκBα [4] = experiment: IκBα phosphorylation and degradation by Western blot, Jurkat cells stimulated with PMA and Ca⁺⁺ ionophore; format: cell-based; settings: 25 µM TPCK or 400 ng/ml CsA 30 min, 100 µM PDTC 1 hour before PMA + Ca⁺⁺ ionophore
Protocol: Subcellular protein extracts were prepared essentially according to Beg, A.A. et al., supra. Following 20 minutes stimulation of Jurkat cells, cytosolic extracts (50 µg/point) were analyzed by Western blot, and nuclear extracts (5 µg/point) by EMSA, as described (Henkel, T., et al., Nature, 365:182-185, 1993).
Rabbit anti-IκBα was prepared against the GST-IκBα fusion protein by standard methods. The specifity of the antibodies was confirmed in competition assays using recombinant IκBα protein.
On the basis of the results in Example 3, phosphorylation of IκBα, in parallel to NF-κB activation, is induced according to the physiological requirements for T cell activation. Cell stimulation and extract preparation was as described above. […] Duration of Jurkat cell stimulation with PMA (10 ng/ml) and Ca⁺⁺ ionophore (1µM) was determined by Western blot analysis. […]
N-acetyl-Leu-Leu-Norleucinal (AcLLnL) is a reversible non-alkylating proteosome inhibitor not likely to disturb post-translation modification events. […] Anti-Rel A serum was a rabbit polyclonal antiserum prepared against the C-terminus portion of Rel A. In FIGURE 6a, cells were pretreated for 4 hours with 50 µg/ml AcLLnL, stimulated with PMA (10 ng/ml) and Ca⁺⁺ ionophore (1 µM) for the time intervals indicated and analyzed by Western blot. […]

NF-κB = NF-κB activation by EMSA, 70Z/3 cells stimulated with PMA, IL-1β or LPS; format: cell-based; settings: 70Z/3 cells pre-treated with 100 µM, 1 hour

SMILES: CCCC[C@@H](C=O)NC(=O)[C@H](CC(C)C)NC(=O)[C@H](CC(C)C)NC(=O)[C@H](C)NC(C)=O [AcALLnL, N-acetyl-Ala-Leu-Leu-Norleucinal] (Ac-ALL[Nle]-aldehyde)
- rank as inhibitor of proteolysis of IκBα (IκBα [1]): followed by AcLLnL and AcALLnL

SMILES: CC(=O)N[C@@H](CC(C)C)C(=O)N[C@@H](CC(C)C)C(=O)N[C@H](C=O)CCCNC(=N)N [AcLLR]
- κB-dependent transcriptional activation (luciferase activity) [2]: had no effect

SMILES: S=C(S)N1CCCC1 [PDTC, pyrrolidinedithiocarbamate]
- decay of IκBα after PMA stimulation (IκBα [3]): No significant decay
- inducible degradation of IκBα (IκBα [4]): blocked both the inducible modification and degradation of IκBα completely
- inducible modification (phosphorylation) of IκBα (IκBα [4]): blocked both the inducible modification and degradation of IκBα completely
- activation of NF-κB after PMA stimulation (NF-κB): No significant decay of IκBα or activation of NF-κB
